Data: ChEMBL document CHEMBL3085627 (J Med Chem, 2013)

The chains behind the UniProt entries cited, without tags or fusion partners.
UniProt P14416, whole entry: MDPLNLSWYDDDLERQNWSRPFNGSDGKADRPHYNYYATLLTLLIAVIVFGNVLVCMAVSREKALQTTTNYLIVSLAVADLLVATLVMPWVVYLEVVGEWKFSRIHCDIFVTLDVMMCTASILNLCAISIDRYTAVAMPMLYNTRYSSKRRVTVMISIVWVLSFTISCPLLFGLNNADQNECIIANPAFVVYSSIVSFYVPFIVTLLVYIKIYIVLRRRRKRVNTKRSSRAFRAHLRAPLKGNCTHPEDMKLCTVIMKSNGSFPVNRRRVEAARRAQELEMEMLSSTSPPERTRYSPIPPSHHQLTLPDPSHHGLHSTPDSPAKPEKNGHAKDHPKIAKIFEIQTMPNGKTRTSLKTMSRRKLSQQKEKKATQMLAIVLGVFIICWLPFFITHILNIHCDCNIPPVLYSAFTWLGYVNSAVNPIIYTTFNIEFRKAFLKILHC

Biological target: D(2) dopamine receptor (Homo sapiens, UniProt P14416)
Assay: Displacement of [3H]-spiperone from human dopamine D2L receptor expressed in CHO cell membranes after 3 hrs by liquid scintillation counting analysis
In short: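 Competition against the radiolabeled antagonist [3H]spiperone at human D2L receptor in FlpIn CHO cell membranes. Affinity is reported as Ki.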

Ki: 6.03 µM
Structure (SMILES): CC(=O)N[C@H]1CC[C@H](CCN2CCc3ccccc3C2)CC1
